PubChem BioAssay AID1053208 – Peter MacCallum Cancer Centre | 2014
Purpose: 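Synthetic lethal interactions between gene loss and doxorubicin in osteosarcoma cells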 (primary screen). Cells: mouse osteosarcoma cells, early-passage culture from an engineered mouse model of fibroblastic bone tumour. Knock-down reagent: siRNA pool against mouse genes, 40 nM. Duration: about 120 h (48 h before drug, then 72 h with drug). Challenge: doxorubicin 100 nM for 72 h, roughly 30-40% inhibitory dose. Measurement: 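Viability read as ATP luminescence after 72 h of 100 nM doxorubicin or none, duplicate wells averaged, scaled to non-targeting siRNA, then expressed as robust z-scores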. Reading the numbers: viability z-score with doxorubicin and doxorubicin viability vs non-targeting: higher = more viable cells under doxorubicin; viability z-score without drug: higher = more viable cells with knock-down alone; z-score of drug to no-drug ratio: higher = less drug sensitisation by knock-down. Rule for the call: 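a pool counts as active when its viability z-score with doxorubicin is -2 or below and its z-score without drug lies between -2 and 2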.
Here is an unselected part of about 17,000 reagents tested. In the full data, 788 (4.7%) were called active. 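Calls rest on z-score classes alone; an extra cut-off of viability at most 70% of control was not applied to them.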

gene knocked down	combined z-score class	viability z-score with doxorubicin	viability z-score without drug	z-score of drug to no-drug ratio	doxorubicin viability vs non-targeting	activity call
Ccdc69 (coiled-coil domain containing 69)	no change with or without drug	-0.22	1.18	-0.9	0.92	inactive
H2-Q1 (histocompatibility 2, Q region locus 1)	no change with or without drug	1.24	0.51	1.01	1.05	inactive
Dbf4 (DBF4 zinc finger)	no change with or without drug	0.45	0.51	0.22	0.98	inactive
Or5j1 (olfactory receptor family 5 subfamily J member 1)	high cell count without drug only	0.79	2.87	-0.9	1.01	inactive
Polr1has (RNA polymerase I subunit H, antisense)	no change with or without drug	0.45	0.84	0	0.98	inactive
Vps4b (vacuolar protein sorting 4B)	no change with or without drug	-0.67	1.35	-1.46	0.88	inactive
Vmn1r171 (vomeronasal 1 receptor 171)	no change with or without drug	-0.67	0.51	-0.9	0.88	inactive
Serpinb9e (serine (or cysteine) peptidase inhibitor, clade B, member 9e)	no change with or without drug	1.24	0	1.46	1.05	inactive
Slc27a4	high cell count without drug only	1.24	2.19	-0.11	1.05	inactive
Trem3 (triggering receptor expressed on myeloid cells 3)	no change with or without drug	0.11	1.52	-0.79	0.95	inactive
Aard (alanine and arginine rich domain containing protein)	no change with or without drug	0.45	0.17	0.45	0.98	inactive
Rep15 (RAB15 effector protein)	no change with or without drug	-0.9	0.51	-1.12	0.86	inactive
Mgat1 (mannoside acetylglucosaminyltransferase 1)	no change with or without drug	0.11	0.84	-0.34	0.95	inactive
Cyp21a1 (cytochrome P450, family 21, subfamily a, polypeptide 1)	no change with or without drug	-0.11	1.85	-1.12	0.93	inactive
Suz12 (SUZ12 polycomb repressive complex 2 subunit)	no change with or without drug	0.9	-0.67	1.57	1.02	inactive
Tspan31 (tetraspanin 31)	no change with or without drug	0.22	1.18	-0.45	0.96	inactive
Cldn5 (claudin 5)	no change with or without drug	0.45	-0.17	0.67	0.98	inactive
Lrrn4 (leucine rich repeat neuronal 4)	high cell count without drug only	0.22	2.36	-1.12	0.96	inactive
Crisp3 (cysteine-rich secretory protein 3)	no change with or without drug	1.35	0.51	1.12	1.06	inactive
Vdac3 (voltage-dependent anion channel 3)	no change with or without drug	-1.12	-1.52	0	0.84	inactive
Atp5f1e (ATP synthase F1 subunit epsilon)	low cell count with and without drug	-2.92	-2.53	-1.46	0.68	inactive
Tesk1 (testis specific protein kinase 1)	no change with or without drug	-0.45	-1.35	0.56	0.9	inactive
Tbc1d15 (TBC1 domain family, member 15)	no change with or without drug	1.24	1.35	0.45	1.05	inactive
Apol11b (apolipoprotein L 11b)	low cell count with doxorubicin only	-2.92	-1.01	-2.47	0.68	active
Mkx (mohawk homeobox)	no change with or without drug	-1.46	-0.34	-1.24	0.81	inactive
Gsdmd (gasdermin D)	no change with or without drug	-0.22	0.84	-0.67	0.92	inactive
Ntrk1 (neurotrophic tyrosine kinase, receptor, type 1)	no change with or without drug	-0.45	-0.51	0	0.9	inactive
Or13n4 (olfactory receptor family 13 subfamily N member 4)	no change with or without drug	-1.24	-1.18	-0.45	0.83	inactive
Shprh (SNF2 histone linker PHD RING helicase)	low cell count with doxorubicin only	-2.36	-1.52	-1.46	0.73	active

Part of the list above, limited to “viability z-score without drug”:
Tesk1 (testis specific protein kinase 1) = -1.35
Tbc1d15 (TBC1 domain family, member 15) = 1.35
Apol11b (apolipoprotein L 11b) = -1.01
Mkx (mohawk homeobox) = -0.34
Gsdmd (gasdermin D) = 0.84

Next reagents:
gene knocked down	combined z-score class	viability z-score with doxorubicin	viability z-score without drug	z-score of drug to no-drug ratio	doxorubicin viability vs non-targeting	activity call
Or2t47 (olfactory receptor family 2 subfamily T member 47)	no change with or without drug	-1.24	-1.52	-0.11	0.83	inactive
Chlsn (cholesin)	low cell count with doxorubicin only	-2.25	-0.51	-2.02	0.74	active
Cyp2c55 (cytochrome P450, family 2, subfamily c, polypeptide 55)	no change with or without drug	1.46	-0.17	1.8	1.07	inactive
Or8g36 (olfactory receptor family 8 subfamily G member 36)	low cell count with doxorubicin only	-2.25	-0.84	-1.8	0.74	active
Pde9a (phosphodiesterase 9A)	no change with or without drug	0.56	-0.84	1.35	0.99	inactive
Tbxa2r (thromboxane A2 receptor)	no change with or without drug	0	0.34	-0.11	0.94	inactive
Fndc3b (fibronectin type III domain containing 3B)	no change with or without drug	1.8	1.18	1.12	1.1	inactive
Papolb (poly (A) polymerase beta (testis specific))	no change with or without drug	1.12	1.18	0.45	1.04	inactive
Abcg5 (ATP binding cassette subfamily G member 5)	no change with or without drug	0.79	0.17	0.79	1.01	inactive
Thoc1 (THO complex 1)	no change with or without drug	-0.67	0.67	-1.01	0.88	inactive
Or4c10 (olfactory receptor family 4 subfamily C member 10)	no change with or without drug	0	-0.67	0.56	0.94	inactive
Or9q2 (olfactory receptor family 9 subfamily Q member 2)	no change with or without drug	-0.56	-0.51	-0.11	0.89	inactive
Hecw1	no change with or without drug	-0.56	0.51	-0.79	0.89	inactive
Chodl (chondrolectin)	no change with or without drug	-0.67	0.51	-0.9	0.88	inactive
Dcps (decapping enzyme, scavenger)	no change with or without drug	1.57	1.18	0.9	1.08	inactive
Mkrn1 (makorin, ring finger protein, 1)	no change with or without drug	-0.22	0.17	-0.22	0.92	inactive
Tcl1b4 (T cell leukemia/lymphoma 1B, 4)	no change with or without drug	-1.12	-1.85	0.22	0.84	inactive
Fkbp8 (FK506 binding protein 8)	no change with or without drug	-0.11	-0.84	0.56	0.93	inactive
Serpina12	no change with or without drug	0.79	-0.17	1.01	1.01	inactive
Hibadh (3-hydroxyisobutyrate dehydrogenase)	no change with or without drug	1.69	1.85	0.56	1.09	inactive
Mtif2 (mitochondrial translational initiation factor 2)	no change with or without drug	-0.67	-0.51	-0.22	0.88	inactive
